# Some of the results follow. For some assays here: The source does not settle which construct or isoform was used.
# Assays:
# Experiment in all cases: protein microarray (ProtoArray v5.0), streptavidin-Alexa Fluor 647
# Conditions in all cases: 3'-biotin; 20 mM Tris (pH 7.5), 5 mM MgCl2, 100 mM KCl, 0.1% Tween-20, A/T-rich and random oligonucleotide blockers; temperature not stated; high values mean tight binding
# TRIM44 (human) = tested on: TRIM44 (human)
# TRIM63 (human) = tested on: TRIM63 (human)
# TRIM69 = target: T1, TRIM69 (UniProt Q86WT6)
# T1 sequence: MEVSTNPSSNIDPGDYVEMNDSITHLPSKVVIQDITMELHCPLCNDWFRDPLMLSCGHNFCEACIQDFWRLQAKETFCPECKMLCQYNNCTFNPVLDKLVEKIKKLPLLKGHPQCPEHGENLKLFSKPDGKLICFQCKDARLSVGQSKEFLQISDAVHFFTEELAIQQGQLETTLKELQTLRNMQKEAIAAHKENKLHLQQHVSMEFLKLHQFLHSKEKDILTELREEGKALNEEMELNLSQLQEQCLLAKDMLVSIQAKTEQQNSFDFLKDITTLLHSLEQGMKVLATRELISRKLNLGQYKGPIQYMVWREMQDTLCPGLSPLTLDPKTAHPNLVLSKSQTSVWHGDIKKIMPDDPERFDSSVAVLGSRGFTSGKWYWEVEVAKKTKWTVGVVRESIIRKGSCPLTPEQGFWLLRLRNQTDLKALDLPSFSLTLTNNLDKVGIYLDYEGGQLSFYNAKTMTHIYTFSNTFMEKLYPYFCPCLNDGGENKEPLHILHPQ
# TSC22D3 (human) = tested on: TSC22D3 (human)
# TSNAXIP1 (human) = tested on: TSNAXIP1 (human)
# TSPAN12 (human) = tested on: TSPAN12 (human)
# TSPAN5 = target: T2, TSPAN5 (UniProt P62079)
# T2 sequence: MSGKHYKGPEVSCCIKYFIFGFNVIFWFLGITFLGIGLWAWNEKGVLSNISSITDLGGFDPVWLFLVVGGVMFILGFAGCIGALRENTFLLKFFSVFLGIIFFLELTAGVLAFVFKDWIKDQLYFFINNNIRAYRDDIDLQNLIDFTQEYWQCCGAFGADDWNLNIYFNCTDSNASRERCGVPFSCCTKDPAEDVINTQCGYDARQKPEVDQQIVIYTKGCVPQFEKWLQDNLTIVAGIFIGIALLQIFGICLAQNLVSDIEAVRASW
# TSR2 (human) = tested on: TSR2 (human)
# TTC1 (human) = tested on: TTC1 (human)
# TTC32 (human) = tested on: TTC32 (human)
# TTC8 (human) = tested on: TTC8 (human)
# TTLL7 = target: T3, TTLL7 (UniProt Q6ZT98)
# T3 sequence: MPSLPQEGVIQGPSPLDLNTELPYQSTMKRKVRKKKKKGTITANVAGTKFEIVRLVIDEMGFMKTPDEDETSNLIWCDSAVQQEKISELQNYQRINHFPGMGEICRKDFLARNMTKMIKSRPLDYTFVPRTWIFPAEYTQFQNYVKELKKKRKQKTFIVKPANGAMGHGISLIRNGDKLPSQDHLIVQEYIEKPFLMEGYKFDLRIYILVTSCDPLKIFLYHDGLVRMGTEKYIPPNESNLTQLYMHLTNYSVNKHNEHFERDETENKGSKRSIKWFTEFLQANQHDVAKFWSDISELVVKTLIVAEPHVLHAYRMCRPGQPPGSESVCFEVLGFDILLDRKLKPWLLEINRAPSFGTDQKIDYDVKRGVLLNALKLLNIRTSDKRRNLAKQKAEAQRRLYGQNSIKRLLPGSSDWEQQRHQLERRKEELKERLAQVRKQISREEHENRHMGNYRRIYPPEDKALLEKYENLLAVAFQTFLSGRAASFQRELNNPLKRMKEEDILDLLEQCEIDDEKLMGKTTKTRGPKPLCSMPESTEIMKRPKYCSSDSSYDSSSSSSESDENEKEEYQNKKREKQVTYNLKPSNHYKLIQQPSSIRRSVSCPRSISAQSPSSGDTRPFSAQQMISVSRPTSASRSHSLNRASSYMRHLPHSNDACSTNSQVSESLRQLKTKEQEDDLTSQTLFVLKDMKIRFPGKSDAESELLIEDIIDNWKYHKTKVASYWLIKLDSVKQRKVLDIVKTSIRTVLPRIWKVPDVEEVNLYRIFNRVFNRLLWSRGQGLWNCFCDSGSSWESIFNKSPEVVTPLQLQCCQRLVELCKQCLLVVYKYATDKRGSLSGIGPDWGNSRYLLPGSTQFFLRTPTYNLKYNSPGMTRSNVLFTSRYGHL
# TTR (human) = tested on: TTR (human)
# TUBA3E (human) = tested on: TUBA3E (human)
# TXNDC9 (human) = tested on: TXNDC9 (human)
# TXNL4B (human) = tested on: TXNL4B (human)
# Tachykinin-3 (human) = tested on: Tachykinin-3 (human)
# Tesmin (human) = tested on: Tesmin (human)
# [1] = tested on: Tetratricopeptide repeat protein 1 (human)
# [2] = tested on: Thrombospondin type-1 domain-containing protein 4 (human)
sequence,measurement,setting,value
GGGGACAGGGGTATGGGGAGGGG [G4-3 biotinylated (CtG)],binding signal,TRIM44 (human),-0.338 z-score
same,binding signal,TRIM63 (human),-0.325 z-score
same,binding signal,TRIM69,-0.307 z-score
same,binding signal,TSC22D3 (human),-0.33 z-score
same,binding signal,TSNAXIP1 (human),-0.333 z-score
same,binding signal,TSPAN12 (human),-0.325 z-score
same,binding signal,TSPAN5,-0.307 z-score
same,binding signal,TSR2 (human),-0.336 z-score
same,binding signal,TTC1 (human),-0.332 z-score
same,binding signal,TTC32 (human),-0.318 z-score
same,binding signal,TTC8 (human),-0.333 z-score
same,binding signal,TTLL7,5.28 z-score
same,binding signal,TTR (human),-0.309 z-score
same,binding signal,TUBA3E (human),-0.33 z-score
same,binding signal,TXNDC9 (human),-0.337 z-score
same,binding signal,TXNL4B (human),-0.296 z-score
same,binding signal,Tachykinin-3 (human),-0.322 z-score
same,binding signal,Tesmin (human),-0.333 z-score
same,binding signal,[1],-0.331 z-score
same,binding signal,[2],-0.317 z-score

# A second format for part of the listing above:
sequence | measurement | setting | value
GGGGACAGGGGTATGGGGAGGGG [G4-3 biotinylated (CtG)] | binding signal | TSC22D3 (human) | -0.33 z-score
same | binding signal | TSNAXIP1 (human) | -0.333 z-score

# — PMC5996148
